{"source": "PubChem BioAssay AID1259285 (Sanger Institute, 2017)", "purpose": "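Kinases needed for HCC56 growth and kinases whose loss boosts drug effects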 (primary screen)", "system": "human HCC56 colorectal cancer cells", "knock-down reagent": "siRNA pool against human genes", "challenge": "DMSO vehicle, or anchor drug BYL719 at 1 µM, cetuximab at 5 µg/ml, or trametinib at 10 nM", "detection": "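Viability as a ratio to non-targeting pool wells, averaged over replicates and turned into a robust z-score; synergy scores with BYL719, cetuximab or trametinib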", "reading the numbers": "viability robust z-score, no drug: higher = more viable cells, weaker knock-down effect", "hit rule": "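Essential when the drug-free viability robust z-score falls below -3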", "meaning of the calls": "active = essential without drug; inactive = no change without drug", "note": "This is an unselected part of 794 reagents tested. Of all reagents, 20 (2.5%) were called active. 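Calls rest on the drug-free arm alone and ignore synergy scores; viability ratios seem to be capped at 1.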 Not all columns of the deposit are shown. The record does not give: the amount of reagent, the time to read-out."}
{"gene symbol":"UCKL1 (GeneID 54963)","PubChem SID":"SID152149527","viability robust z-score, no drug":-2.01,"call":"inactive"}
{"gene symbol":"GRK2 (GeneID 156)","PubChem SID":"SID152155453","viability robust z-score, no drug":0.458,"call":"inactive"}
{"gene symbol":"NEK4 (GeneID 6787)","PubChem SID":"SID152155431","viability robust z-score, no drug":0.458,"call":"inactive"}
{"gene symbol":"PIK3C2B (GeneID 5287)","PubChem SID":"SID56479135","viability robust z-score, no drug":-0.291,"call":"inactive"}
{"gene symbol":"DLG4 (GeneID 1742)","PubChem SID":"SID152149566","viability robust z-score, no drug":0.458,"call":"inactive"}
{"gene symbol":"DGKQ (GeneID 1609)","PubChem SID":"SID56478983","viability robust z-score, no drug":-0.807,"call":"inactive"}
{"gene symbol":"RPS6KA1 (GeneID 6195)","PubChem SID":"SID152152227","viability robust z-score, no drug":0.458,"call":"inactive"}
{"gene symbol":"BRD3 (GeneID 8019)","PubChem SID":"SID135620912","viability robust z-score, no drug":0.458,"call":"inactive"}
{"gene symbol":"NLK (GeneID 51701)","PubChem SID":"SID56478865","viability robust z-score, no drug":0.458,"call":"inactive"}
{"gene symbol":"FN1 (GeneID 2335)","PubChem SID":"SID134314553","viability robust z-score, no drug":0.458,"call":"inactive"}
{"gene symbol":"OXSR1 (GeneID 9943)","PubChem SID":"SID152151868","viability robust z-score, no drug":0.458,"call":"inactive"}
{"gene symbol":"CEP290 (GeneID 80184)","PubChem SID":"SID152154792","viability robust z-score, no drug":0.458,"call":"inactive"}
{"gene symbol":"WNK3 (GeneID 65267)","PubChem SID":"SID152156066","viability robust z-score, no drug":0.458,"call":"inactive"}
{"gene symbol":"PIK3R4 (GeneID 30849)","PubChem SID":"SID135620923","viability robust z-score, no drug":-0.96,"call":"inactive"}
{"gene symbol":"CDK19 (GeneID 23097)","PubChem SID":"SID56478856","viability robust z-score, no drug":0.323,"call":"inactive"}
{"gene symbol":"MYO3B (GeneID 140469)","PubChem SID":"SID152152883","viability robust z-score, no drug":0.458,"call":"inactive"}
{"gene symbol":"CDK16 (GeneID 5127)","PubChem SID":"SID152150805","viability robust z-score, no drug":0.458,"call":"inactive"}
{"gene symbol":"MED24 (GeneID 9862)","PubChem SID":"SID152152726","viability robust z-score, no drug":0.458,"call":"inactive"}
{"gene symbol":"EPHB2 (GeneID 2048)","PubChem SID":"SID135620616","viability robust z-score, no drug":0.458,"call":"inactive"}
{"gene symbol":"MSR1 (GeneID 4481)","PubChem SID":"SID152150198","viability robust z-score, no drug":0.458,"call":"inactive"}
{"gene symbol":"RYK (GeneID 6259)","PubChem SID":"SID152147158","viability robust z-score, no drug":0.458,"call":"inactive"}
{"gene symbol":"SLK (GeneID 9748)","PubChem SID":"SID56478731","viability robust z-score, no drug":0.458,"call":"inactive"}

4 of these entries, reformatted:
gene symbol,PubChem SID,"viability robust z-score, no drug",call
CEP290 (GeneID 80184),SID152154792,0.458,inactive
WNK3 (GeneID 65267),SID152156066,0.458,inactive
PIK3R4 (GeneID 30849),SID135620923,-0.96,inactive
CDK19 (GeneID 23097),SID56478856,0.323,inactive

Additional records follow.
{"gene symbol":"MAP2K4 (GeneID 6416)","PubChem SID":"SID56478690","viability robust z-score, no drug":0.458,"call":"inactive"}
{"gene symbol":"ULK2 (GeneID 9706)","PubChem SID":"SID56479062","viability robust z-score, no drug":0.458,"call":"inactive"}
{"gene symbol":"TRIM27 (GeneID 5987)","PubChem SID":"SID152155375","viability robust z-score, no drug":0.458,"call":"inactive"}
{"gene symbol":"HK1 (GeneID 3098)","PubChem SID":"SID56479165","viability robust z-score, no drug":0.458,"call":"inactive"}
{"gene symbol":"CERT1 (GeneID 10087)","PubChem SID":"SID56479254","viability robust z-score, no drug":0.458,"call":"inactive"}
{"gene symbol":"ATM (GeneID 472)","PubChem SID":"SID152150358","viability robust z-score, no drug":-1.35,"call":"inactive"}
{"gene symbol":"EXOSC10 (GeneID 5394)","PubChem SID":"SID152152402","viability robust z-score, no drug":0.458,"call":"inactive"}
{"gene symbol":"VRK1 (GeneID 7443)","PubChem SID":"SID152147475","viability robust z-score, no drug":0.458,"call":"inactive"}
{"gene symbol":"ADCK2 (GeneID 90956)","PubChem SID":"SID56478993","viability robust z-score, no drug":-2.9,"call":"inactive"}
{"gene symbol":"SYNCRIP (GeneID 10492)","PubChem SID":"SID134320219","viability robust z-score, no drug":-0.512,"call":"inactive"}
{"gene symbol":"PRKY (GeneID 5616)","PubChem SID":"SID135620861","viability robust z-score, no drug":0.458,"call":"inactive"}
{"gene symbol":"PKIA (GeneID 5569)","PubChem SID":"SID56479258","viability robust z-score, no drug":0.458,"call":"inactive"}
{"gene symbol":"TRIB2 (GeneID 28951)","PubChem SID":"SID56479059","viability robust z-score, no drug":0.458,"call":"inactive"}
{"gene symbol":"DCLK3 (GeneID 85443)","PubChem SID":"SID152149137","viability robust z-score, no drug":0.458,"call":"inactive"}
